# From article PMC12431657, “Discovery and mechanistic insights of dibenzoylmethane as a broad spectrum inhibitor of coronavirus” (PLOS Pathogens, 2025)
# Counter-ions that a name gives are not always drawn. Like-named read-outs stand apart in the source and are kept apart here. In all, about 3,300 compounds went through this assay and about 95 (3%) showed an effect of 50% or more. This is one part of the list.
# Test system: HCoV-229E
# Set-up: species or system Huh-7; HTS, protection from HCoV-229E induced cell death, luminescent cell viability (CellCounting-Lite 2.0), inhibition rate
smiles,measurement,setting,value
C[C@]12CCC(=O)C=C1CC[C@@H]1[C@@H]2[C@@H](O)C[C@]2(C)C(=O)CC[C@@H]12 [11-Beta-hydroxyandrostenedione],229E Inhibition rate,"24 h, 10 µM; inhibitor",25.4%
CC(=O)OC[C@]12[C@H](OC(C)=O)[C@H](OC(C)=O)[C@@H]3[C@@H](OC(C)=O)[C@@]14O[C@@]3(C)COC(=O)c1cccnc1CCC(C)C(=O)O[C@@H]([C@H](OC(=O)c1ccccc1)[C@@H]2OC(C)=O)[C@]4(C)O (some centres unmarked) [Wilforine],229E Inhibition rate,"24 h, 10 µM; inhibitor",24.1%
COC1=CC(=O)O[C@@H](CCc2ccc3c(c2)OCO3)C1 [Dihydromethysticin],229E Inhibition rate,"24 h, 10 µM; inhibitor",0%
CO[C@@H]1C[C@@H](C[C@H]2CC[C@H](C)[C@H]([C@@H](C)C(=O)O)O2)O[C@]2(O[C@](C)([C@H]3CC[C@@](C)([C@@H]4O[C@@H]([C@H]5O[C@@](O)(CO)[C@H](C)C[C@@H]5C)C[C@@H]4C)O3)C[C@H]2C)[C@@H]1C [Nigericin (sodium salt)],229E Inhibition rate,"24 h, 10 µM; inhibitor",0%
O=c1cc(O)c2ccccc2o1 [4-Hydroxycoumarin],229E Inhibition rate,"24 h, 10 µM; inhibitor",6.9%
NC(=O)c1cn([C@@H]2O[C@H](CO)[C@@H](O)[C@H]2O)c2ncnc(N)c12 [Sangivamycin],229E Inhibition rate,"24 h, 10 µM; inhibitor",8.8%
C[C@]12CC[C@H]3[C@@H](CC[C@@H]4C[C@@H](O)CC[C@@]43CO)[C@@]1(O)CC[C@@H]2c1ccc(=O)oc1 [19-Hydroxybufalin],229E Inhibition rate,"24 h, 10 µM; inhibitor",43.5%
C=CCc1cc(OC)c2c(c1)OCO2 [Myristicin],229E Inhibition rate,"24 h, 10 µM; inhibitor",7.2%
CC[C@@]1(O)C(=O)OCc2c1cc1n(c2=O)Cc2cc3c(N)cccc3nc2-1 [9-amino-CPT],229E Inhibition rate,"24 h post infection, 1 h compound pre-incubation; 10 µM; inhibitor",13.2%
C=C1CC[C@H]2[C@@H](/C=C(\C)C(=O)[C@@]3(O)C[C@H](C)[C@H](O)[C@@H]3[C@@H]1O)C2(C)C [Lathyrol],229E Inhibition rate,"24 h, 10 µM; inhibitor",9.6%
COC[C@]12CN(C)C3[C@@H]4[C@H](OC)[C@H]1[C@@]3([C@@H](OC)C[C@H]2O)[C@]1(O)C[C@@]2(O)[C@H](OC(=O)c3ccccc3)[C@@H]1[C@]4(OC(C)=O)[C@@H](O)[C@@H]2OC [Beiwutine],229E Inhibition rate,"24 h, 10 µM; inhibitor",5.9%
C[C@]12CC[C@H](O)C[C@@]1(O)CC[C@@H]1[C@@H]2CC[C@]2(C)[C@@H](c3ccc(=O)oc3)[C@@H](O)[C@H]3O[C@]132 [Desacetylcinobufotalin],229E Inhibition rate,"24 h, 10 µM; inhibitor",0%
C[C@]12CC[C@H](O)C[C@@H]1CC[C@@H]1[C@@H]2CC[C@]2(C)C(=O)CC[C@@H]12 [Epiandrosterone],229E Inhibition rate,"24 h, 10 µM; inhibitor",29.3%
C[C@H]1CC[C@H]2[C@H](C)[C@@H]3CC[C@@H]4[C@@H](C[C@H]5[C@H]4C[C@@H](O)[C@H]4C[C@@H](O)CC[C@@]45C)[C@@H]3CN2C1 [Hupehenine],229E Inhibition rate,"24 h, 10 µM; inhibitor",40.3%
"CC(=O)C(=O)c1ccccc1 [1-Phenylpropane-1,2-dione]",229E Inhibition rate,"24 h, 10 µM; inhibitor",9.1%
COc1cc(CCN)ccc1O [3-Methoxytyramine (hydrochloride)],229E Inhibition rate,"24 h, 10 µM, inhibitor",34.1%
C[C@]12CC[C@@H](O)C[C@@H]1CC[C@@H]1[C@@H]2[C@@H](O)C[C@]2(C)C(=O)CC[C@@H]12 [11β-Hydroxyandrosterone],229E Inhibition rate,"24 h, 10 µM; inhibitor",12.4%
CC(=O)O[C@H]1[C@H]2O[C@]23[C@@H]2CC[C@@H]4C[C@@H](O)CC[C@]4(C)[C@H]2CC[C@]3(C)[C@H]1c1ccc(=O)oc1 [Cinobufagin],229E Inhibition rate,"24 h, 10 µM; inhibitor",44.9
CCN1C[C@]2(COC)[C@H](O)C[C@H](OC)[C@]34C1[C@H]([C@H](OC)[C@H]23)[C@@]1(OC(C)=O)C[C@H](OC)[C@@]2(O)C[C@@H]4[C@@H]1[C@H]2OC(=O)c1ccc(OC)cc1 [Yunaconitine],229E Inhibition rate,"24 h, 10 µM; inhibitor",11.5%
C=C(C)[C@@H]1[C@H]2OC(=O)[C@@H]1[C@]1(O)C[C@H]3O[C@]34C(=O)O[C@H]2[C@]14C [Picrotoxinin],229E Inhibition rate,"24 h, 10 µM; inhibitor",0
COCc1c(CO)cnc(C)c1O [4'-O-Methylpyridoxine],229E Inhibition rate,"24 h, 10 µM; inhibitor",9%
CCN1C[C@@]2(COC)[C@H]3[C@@H](OC)[C@H]4[C@@H]1[C@]3([C@@H](OC)C[C@H]2OC(C)=O)[C@@H]1C[C@@]2(O)[C@H](OC(=O)c3ccccc3)[C@@H]1[C@]4(OC(C)=O)[C@@H](O)[C@@H]2OC [Flaconitine],229E Inhibition rate,"24 h, 10 µM; inhibitor",16.9%
O=C(O)COc1ccccc1 [Phenoxyacetic acid],229E Inhibition rate,"24 h, 10 µM; inhibitor",11.2%
C=C[C@@]12CN(C)[C@H]3C[C@]14C(=Nc1ccccc14)[C@@H]1C[C@@H]2[C@@H]3CO1 [Koumine],229E Inhibition rate,"24 h, 10 µM; inhibitor",31.1%
CC(C)C[C@H](NP(=O)(O)O[C@@H]1O[C@@H](C)[C@H](O)[C@@H](O)[C@H]1O)C(=O)N[C@@H](Cc1c[nH]c2ccccc12)C(=O)O [Phosphoramidon (Disodium)],229E Inhibition rate,"24 h, 10 µM; inhibitor",13%
C[C@@H](NC(=O)[C@@H](N)Cc1ccc(O)cc1)C(=O)N[C@@H](Cc1ccccc1)C(=O)NCC(=O)N[C@@H](Cc1ccc(O)cc1)C(=O)N1CCC[C@H]1C(=O)N[C@@H](CO)C(N)=O [Dermorphin],229E Inhibition rate,"24 h, 10 µM; inhibitor",14.3
CCN(CC)N=O [N-Nitrosodiethylamine],229E Inhibition rate,"24 h, 10 µM; inhibitor",12.9%
COc1cc2c3c(c1OC)-c1ccccc1C[C@H]3[N+](C)(C)CC2 [N-Methylnuciferine],229E Inhibition rate,"24 h, 10 µM; inhibitor",9.7%
C=C1[C@@H]2CC[C@H]3[C@]4(C)C[C@H](O[C@H]5O[C@H](CO)[C@@H](OS(=O)(=O)O)[C@H](OS(=O)(=O)O)[C@H]5OC(=O)CC(C)C)C[C@@H](C(=O)O)[C@H]4CC[C@]3(C2)[C@H]1O [Atractyloside (potassium salt)],229E Inhibition rate,"24 h, 10 µM; inhibitor",24.3%
CC(C)=CCC[C@](C)(O)[C@H]1CC[C@]2(C)[C@@H]1[C@H](O)C[C@@H]1[C@@]3(C)CC[C@H](O)C(C)(C)[C@@H]3[C@@H](O[C@@H]3O[C@H](CO)[C@@H](O)[C@H](O)[C@H]3O)C[C@]12C [Ginsenoside Rh1],229E Inhibition rate,"24 h, 10 µM; inhibitor",24.5%
COc1ccc(C(=O)O[C@H]2CC[C@@]3(C)[C@@H]4CC[C@H]5[C@]6(O)C[C@H](O)[C@@]7(O)[C@@H](CN8C[C@@H](C)CC[C@H]8[C@@]7(C)O)[C@]6(O)C[C@@]53O[C@]24O)cc1OC [Veratridine],229E Inhibition rate,"24 h, 10 µM; inhibitor",30.2%
COc1ccc(C=O)cc1O [Isovanillin],229E Inhibition rate,"24 h, 10 µM; inhibitor",0%
CC(=O)/C=C/c1ccccc1 [trans-Benzylideneacetone],229E Inhibition rate,"24 h, 10 µM, inhibitor",21.8%
O=c1cccc2n1CC1CC2CN2CCCCC12 (centres unmarked) [Thermopsine],229E Inhibition rate,"24 h, 10 µM; inhibitor",23.6%
C/C=C(\C)C(=O)N[C@@H](c1ccccc1)[C@@H](O)C(=O)O[C@H]1C[C@@]2(O)[C@@H](OC(=O)c3ccccc3)[C@@H]3[C@]4(OC(C)=O)CO[C@@H]4C[C@H](O)[C@@]3(C)C(=O)[C@H](OC(C)=O)C(=C1C)C2(C)C [Cephalomannine],229E Inhibition rate,"24 h, 10 µM; inhibitor",17.2%
CN(C)NC(=O)CCC(=O)O [Daminozide],229E Inhibition rate,"24 h, 10 µM; inhibitor",12.3%
C[C@H]1O[C@@H](O[C@H]2CC[C@@]3(C)[C@H](CC[C@@H]4[C@@H]3C[C@@H](O)[C@]3(C)[C@@H](C5=CC(=O)OC5)CC[C@]43O)C2)C[C@H](O)[C@@H]1O[C@H]1C[C@H](O)[C@H](O[C@H]2C[C@H](O)[C@H](O[C@@H]3O[C@H](CO)[C@@H](O)[C@H](O)[C@H]3O)[C@@H](C)O2)[C@@H](C)O1 [Deslanoside],229E Inhibition rate,"24 h, 10 µM; inhibitor",55.1
C=CCSC [Allyl methyl sulfide],229E Inhibition rate,"24 h, 10 µM; inhibitor",15.5
CC1(C)O[C@@H]1COc1c2occc2cc2ccc(=O)oc12 [Heraclenin],229E Inhibition rate,"24 h, 10 µM; inhibitor",49.2%
"O=C(/C=C/c1ccc(O)c(O)c1)OC1[C@H](O)CC(OC(=O)/C=C/c2ccc(O)c(O)c2)(C(=O)O)C[C@H]1O (some centres unmarked) [1,4-Dicaffeoylquinic acid]",229E Inhibition rate,"24 h, 10 µM; inhibitor",0%
"OCC(Cl)(Cl)Cl [2,2,2-Trichloroethanol]",229E Inhibition rate,"24 h, 10 µM; inhibitor",10.2%
CC(C)=CC[C@@H](OC(=O)CC(C)(C)O)C1=CC(=O)c2c(O)ccc(O)c2C1=O [β-Hydroxyisovalerylshikonin],229E Inhibition rate,"24 h, 10 µM; inhibitor",7.4%
CN1CC[C@]23C(=O)C[C@H]4C(=CCO[C@H]5CC(=O)N(c6c(O)cccc62)[C@H]3[C@H]54)C1 [Vomicine],229E Inhibition rate,"24 h, 10 µM; inhibitor",11.7%
CC(C(=O)O)C(=O)O [Methylmalonic acid],229E Inhibition rate,"24 h, 10 µM; inhibitor",15.2
O=C(O)c1ccc(=O)[nH]c1 [6-Hydroxynicotinic acid],229E Inhibition rate,"24 h, 10 µM; inhibitor",13.6%
c1ccc2c(c1)ccc1c3ccccc3ccc21 [Chrysene],229E Inhibition rate,"24 h, 10 µM; inhibitor",7
CCc1ccc(O)c2cc3c(nc12)-c1cc2c(c(=O)n1C3)COC(=O)[C@]2(O)CC [12-Ethyl-9-hydroxycamptothecin],229E Inhibition rate,"24 h, 10 µM; inhibitor",3.6%
COC1=C[C@]23CCCN2CCc2cc4c(cc2[C@@H]3[C@@H]1O)OCO4 [Cephalotaxine],229E Inhibition rate,"24 h, 10 µM; inhibitor",17.3%
C[C@@H]1C(=O)O[C@H]2[C@H](O)[C@@]34O[C@@H]5OC(=O)[C@H](O)[C@@]56[C@H](C(C)(C)C)[C@H](O)C(OC3=O)[C@]64[C@@]12O (some centres unmarked) [Ginkgolide C],229E Inhibition rate,"24 h, 10 µM; inhibitor",18.8%
CCCCCCCCC(=O)NCc1ccc(O)c(OC)c1 [Nonivamide],229E Inhibition rate,"24 h, 10 µM; inhibitor",37.1
COc1cc2occc2c2oc(=O)ccc12 [Isobergapten],229E Inhibition rate,"24 h, 10 µM; inhibitor",15.7%
C/C=C(\C)C(=O)O[C@@H]1C[C@H](O)[C@]23CO[C@H](C(=O)OC)[C@H]2[C@](C)([C@]24O[C@@]2(C)[C@H]2C[C@@H]4O[C@@H]4OC=C[C@@]42O)[C@H](O)[C@@H]2OC[C@@]1(C(=O)OC)[C@H]23 [Azadirachtin B],229E Inhibition rate,"24 h, 10 µM; inhibitor",25%
Cc1c([C@H](C)[C@@H]2NC[C@@H](C)C[C@H]2O)ccc2c1C[C@H]1[C@H]2CC=C2C[C@@H](O[C@@H]3O[C@H](CO)[C@@H](O)[C@H](O)[C@H]3O)CC[C@@]21C [Veratrosine],229E Inhibition rate,"24 h, 10 µM; inhibitor",0%

# Two neighbouring records already listed:
smiles,measurement,setting,value
CN1CC[C@]23C(=O)C[C@H]4C(=CCO[C@H]5CC(=O)N(c6c(O)cccc62)[C@H]3[C@H]54)C1 [Vomicine],229E Inhibition rate,"24 h, 10 µM; inhibitor",11.7%
CC(C(=O)O)C(=O)O [Methylmalonic acid],229E Inhibition rate,"24 h, 10 µM; inhibitor",15.2
